From PubChem BioAssay AID2685 (National Center for Advancing Translational Sciences (NCATS), 2010)
This is one part of the list. These are further read-outs of the screen, such as a control signal, another cell line or another target. No call is given for them. The list favours compounds with an active or inconclusive main result. Words in brackets tell the shape of the fitted curve; partial curves, single points and poor fits give uncertain potencies.

Assay: qHTS Assay for Lipid Storage Modulators in Drosophila S3 Cells;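 as to cell number change: cells counted by Cell Tracker Red CMTPX staining in the red channel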
Settings: BODIPY lipid droplet fluorescence, 18-24 h; for cell number change: measured here: cell count max response, cells fed with added oleic acid
Procedure, shortened: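 Laser-scanning cytometry quantifies lipid droplet accumulation (500–530 nm total intensity; droplet/cell object ratio) in oleic acid-fed (400 uM added) Drosophila S3 cells treated with a concentration series. 20 uM Triacsin C defined 100% inhibition.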

[1] = measured here: lipid fluorescence (Fed channel) AC50, cells fed with added oleic acid
[2] = measured here: cell number channel AC50, cells fed with added oleic acid

SMILES	cell number change [%]	AC50 [1]	AC50 [2]
COc1ccc(OCCCC(=O)Nc2cc(S(=O)(=O)N3CCCCC3)ccc2C)cc1	-15.5	–	–
COc1ccc(NCC(=O)N/N=C/c2ccc3c(c2)OCCO3)cc1	10.8	29.1 µM [rising, single point]	–
CN(C)C(CNC(C(=O)Nc1ccc(F)cc1)c1ccccc1)c1ccccc1 (configuration not stated)	-14.1	–	–
CC(C)(C)C(=O)NC1(C(F)(F)F)C(=O)Nc2c1c(=O)[nH]c(=O)n2Cc1ccco1 (configuration not stated)	7.01	0.0326 µM [falling, full curve, poor fit]	–
COc1ccc(NC(=O)C2CC2)cc1S(=O)(=O)N1CCOCC1	-26	0.259 µM [rising, full curve]	0.116 µM [falling, full curve, poor fit]
O=C(Cc1ccc(Br)cc1)N1CCCC1	16.2	6.51 µM [rising, single point]	–
CC(C)(C)c1ccc(C(=O)NCc2nnc(SCC(=O)NC3CCCC3)o2)cc1	-42.1	14.6 µM [falling, partial curve]	0.206 µM [falling, partial curve]
Cc1c(O)ccc2c(CN3CCN(C/C=C/c4ccccc4)CC3)cc(=O)oc12	-16.3	0.00461 µM [falling, full curve, poor fit]	–
CCn1nc(C)c(/C=N/NC(=O)c2nc3nc(C)cc(C)n3n2)c1C	-21.2	5.8 µM [falling, full curve]	–
CN(C(=O)/C(N=Nc1cccc(C(F)(F)F)c1)=C(\O)C(F)(F)F)c1ccccc1	19.9	–	4.61 µM [rising, single point]
Cc1noc(C)c1S(=O)(=O)N1CCC(C(=O)Nc2ccc(OC(F)(F)F)cc2)CC1	–	20.6 µM [falling, partial curve]	–
COCCNc1cc(-c2ccccc2)nc2cc(-c3cccc(F)c3)nn12	-8.84	29.1 µM [falling, single point]	–
O=C(Nc1ccc(Cl)cc1)N1CCN(c2ccc3nnc(-c4ccc(F)cc4)n3n2)CC1	-47.9	–	29.1 µM [falling, single point]
CCCCNC(=O)Nc1ccnn1C1CCCCC1	20.6	18.4 µM [falling, single point]	0.731 µM [falling, single point]
COc1ccc(C(=O)N2CCCC(Nc3ccc(F)cc3)C2)c(OC)c1 (configuration not stated)	34.4	–	16.4 µM [rising, partial curve, poor fit]
CS(=O)(=O)c1ccc(C(=O)N(Cc2ccccc2)c2ccccc2)cc1	14.5	0.291 µM [falling, full curve, poor fit]	–
CCc1cc(=O)oc2cc(OCC(=O)O)c(Cl)cc12	-119	0.651 µM [falling, full curve]	25.9 µM [falling, partial curve]
O=C1CCCC2=C1C(c1ccc(O)cc1)c1c(ccc3ccccc13)N2 (configuration not stated)	–	0.58 µM [falling, single point]	–
COc1cc2c(cc1OC)CN(C(=O)c1cc(S(=O)(=O)N3CCOCC3)c(Cl)cc1Cl)CC2	-8.12	8.2 µM [rising, partial curve]	–
Cc1ccccc1-c1nc(CS(=O)(=O)CC(=O)NCCCN2CCOCC2)c(C)o1	-8.78	–	–

SMILES	cell number change [%]	AC50 [1]	AC50 [2]
Cc1ccsc1/C=N/NC(=S)NCCc1ccccc1	16.6	–	–
COc1ccc(C2C(C#N)=C(N)Oc3n[nH]c(C)c32)cc1Cn1cc([N+](=O)[O-])cn1 (configuration not stated)	-10.2	–	–
Cc1ccc(CNC(=O)c2ccc(N3CCC4(CC3)CC(c3cccc(Br)c3)=NO4)c(NC(=O)c3cccc(C)c3)c2)cc1	2.62	14.6 µM [rising, single point]	–
CCOC(=O)c1c(O)c2c([nH]c1=O)CCCC2	–	20.6 µM [falling, partial curve]	–
CCOc1cc(CNCC(C)C)c(Cl)cc1OCC(=O)Nc1ccccc1	50	–	–
CCOc1cc(C2/C(=C(/O)c3ccc(OC(C)C)cc3)C(=O)C(=O)N2CCCOC)ccc1O (configuration not stated)	-17.7	0.184 µM [falling, full curve, poor fit]	–
C/C(=N\NC(=O)Cn1nc(C)c([N+](=O)[O-])c1C)c1ccc(O)cc1	32.9	–	18.4 µM [rising, single point]
CC1(C)CN(C(Cc2ccccc2)C(N)=O)C1=O (configuration not stated)	-29.2	–	–
O=C(Cn1nnc2ccccc2c1=O)N[C@@H](Cc1c[nH]c2ccccc12)C(=O)O	-21	0.82 µM [falling, full curve, poor fit]	–
COc1ccc(N2CCN(C(=O)c3sc4ncn(CC(=O)N5CCCCC5)c(=O)c4c3C)CC2)cc1	–	0.58 µM [falling, single point]	0.103 µM [rising, full curve, poor fit]
Cc1nn(CCOc2cccc(Cl)c2)c(C)c1[N+](=O)[O-]	60.1	0.411 µM [rising, full curve]	25.9 µM [rising, single point]
O=C(CNC(=O)c1ccccc1)N/N=C/c1ccc([N+](=O)[O-])o1	-14.2	4.61 µM [falling, full curve]	6.51 µM [falling, single point]
N#Cc1c(-c2ccc(Cl)cc2)ccnc1N1CCOCC1	-63.1	0.092 µM [falling, full curve, poor fit]	11.6 µM [falling, partial curve]
CC(=O)Nc1cccc(C(=O)OCC(=O)NCc2ccc(F)cc2)c1	-13.7	–	–
Cc1ccc(OCC(=O)Nc2ccc(C(N)=O)cc2)cc1	2.7	3.66 µM [falling, single point]	–
NC(=O)N1CC(O)CC1C(=O)Nc1ccc(Cl)c(Cl)c1 (configuration not stated)	-9	20.6 µM [rising, single point]	–
Cc1ccc(NCc2nc3ccccc3n2CCOc2ccccc2)cc1	5.91	4.11 µM [rising, partial curve, poor fit]	–
Cc1ccc(Nc2cc(C(=O)NCCCN3CCOCC3)c3ccccc3n2)cc1C	-2.69	6.51 µM [rising, single point]	–
O=C(COc1ccccc1-c1ccccc1)Nc1ccc(S(=O)(=O)NCc2ccco2)cc1	–	0.58 µM [falling, single point]	–
Cc1ccc(C)c(S(=O)(=O)N=Nc2c(O)[nH]c3ccccc23)c1	-5.6	3.26 µM [falling, full curve, poor fit]	–

SMILES	cell number change [%]	AC50 [1]	AC50 [2]
COc1ccc(CCN2C(=O)CSC2c2ccc(F)cc2)cc1 (configuration not stated)	18	–	–
O=C(CSc1cn(CC(=O)N2CCCCC2)c2ccccc12)NCC1CCCO1 (configuration not stated)	13.2	–	–
COc1ccc(N(CC(=O)NC(C)C)C(=O)CCC(=O)Nc2ccccn2)cc1	27.6	29.1 µM [rising, single point]	–
O=C(NN=C1CCCC1)c1[nH]c2ccc(Cl)cc2c1-c1ccccc1	-37.4	32.6 µM [falling, single point]	32.6 µM [falling, single point]
C[C@@H](O)C(C(=O)N1CCNCC1)n1cc([C@@H](N)CCCCN)nn1 (some centres not stated)	7.52	29.1 µM [rising, single point]	–
COc1ccccc1CC(=O)N1CCN(C(=O)c2ccco2)CC1	-24.9	–	0.0651 µM [falling, full curve, poor fit]
Cc1cc(C)nc(NC(=O)NS(=O)(=O)N2CCCCCC2)n1	-26.9	3.26 µM [falling, full curve]	4.11 µM [falling, full curve, poor fit]
O=C(N/N=C/c1ccc(Cl)cc1)c1nc2ccc([N+](=O)[O-])cc2c(=O)[nH]1	-34.5	16.4 µM [falling, partial curve, poor fit]	32.6 µM [falling, single point]
CCOc1ccc2ccccc2c1CNCCc1ccc(S(N)(=O)=O)cc1	–	29.1 µM [rising, single point]	–
O=C(/C=C/c1ccc(-c2ccccc2[N+](=O)[O-])o1)c1ccco1	-25.7	2.06 µM [rising, partial curve]	–
CC(C)C(=O)Nc1nc(-c2ccc(S(=O)(=O)N3CCOCC3)cc2)cs1	–	7.31 µM [falling, partial curve, poor fit]	–
Oc1ccc(-c2[nH]nc(-c3ccccc3)c2-c2nc3ccccc3[nH]2)cc1	1.64	25.9 µM [rising, single point]	–
Nc1cccc([N+](=O)[O-])c1	-6.51	–	–
O=C(NS(=O)(=O)Oc1ccccc1F)OC[C@@H]1CCCN2CCCCC12 (some centres not stated)	-4.76	6.51 µM [rising, partial curve]	–
COc1ccc(Nc2nc3[nH]c(=O)cc(O)c3s2)cc1	-35.7	29.1 µM [falling, single point]	29.1 µM [falling, single point]
COc1ccc(NC(=O)CCCN2C(=O)C3CC=CCC3C2=O)cc1 (configuration not stated)	-9.94	–	–
CCCCNC(=S)Nc1ccc(-c2nc3ccc(C)cc3s2)cc1	-10.8	–	–
CC1=Nc2ccccc2N=C(NC(=O)CSC(=S)N2CCN(C)CC2)C1c1ccccc1 (configuration not stated)	16.9	0.731 µM [rising, full curve, poor fit]	–
Cc1cccc(C)c1NC(=O)N1CC(C)OC(C)C1 (configuration not stated)	43.1	–	5.8 µM [rising, partial curve, poor fit]
CCN(CC)c1ccc(/C=N/NC(=O)c2cccc(S(=O)(=O)Nc3ccccc3OC)c2)cc1	80.3	–	18.4 µM [rising, single point]

Exported in CSV form: part of the list above
SMILES,cell number change [%],AC50 [1],AC50 [2]
CC(C)(C)c1ccc(C(=O)NCc2nnc(SCC(=O)NC3CCCC3)o2)cc1,-42.1,"14.6 µM [falling, partial curve]","0.206 µM [falling, partial curve]"
CN(C(=O)/C(N=Nc1cccc(C(F)(F)F)c1)=C(\O)C(F)(F)F)c1ccccc1,19.9,–,"4.61 µM [rising, single point]"
O=C(Nc1ccc(Cl)cc1)N1CCN(c2ccc3nnc(-c4ccc(F)cc4)n3n2)CC1,-47.9,–,"29.1 µM [falling, single point]"
COc1cc2c(cc1OC)CN(C(=O)c1cc(S(=O)(=O)N3CCOCC3)c(Cl)cc1Cl)CC2,-8.12,"8.2 µM [rising, partial curve]",–
Cc1ccsc1/C=N/NC(=S)NCCc1ccccc1,16.6,–,–
CC1(C)CN(C(Cc2ccccc2)C(N)=O)C1=O (configuration not stated),-29.2,–,–
COc1ccc(N2CCN(C(=O)c3sc4ncn(CC(=O)N5CCCCC5)c(=O)c4c3C)CC2)cc1,–,"0.58 µM [falling, single point]","0.103 µM [rising, full curve, poor fit]"
O=C(CNC(=O)c1ccccc1)N/N=C/c1ccc([N+](=O)[O-])o1,-14.2,"4.61 µM [falling, full curve]","6.51 µM [falling, single point]"
Cc1ccc(OCC(=O)Nc2ccc(C(N)=O)cc2)cc1,2.7,"3.66 µM [falling, single point]",–
COc1ccccc1CC(=O)N1CCN(C(=O)c2ccco2)CC1,-24.9,–,"0.0651 µM [falling, full curve, poor fit]"
Cc1cc(C)nc(NC(=O)NS(=O)(=O)N2CCCCCC2)n1,-26.9,"3.26 µM [falling, full curve]","4.11 µM [falling, full curve, poor fit]"
O=C(N/N=C/c1ccc(Cl)cc1)c1nc2ccc([N+](=O)[O-])cc2c(=O)[nH]1,-34.5,"16.4 µM [falling, partial curve, poor fit]","32.6 µM [falling, single point]"
Cc1cccc(C)c1NC(=O)N1CC(C)OC(C)C1 (configuration not stated),43.1,–,"5.8 µM [rising, partial curve, poor fit]"
CCN(CC)c1ccc(/C=N/NC(=O)c2cccc(S(=O)(=O)Nc3ccccc3OC)c2)cc1,80.3,–,"18.4 µM [rising, single point]"
